Measurements reported in PubChem BioAssay AID602196 (INSERM, 2012).
Aim: 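Modifiers of cisplatin sensitivity in A549 cells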. Cell system: human A549 lung cancer cells. Reagent: siRNA pair against human genes. Time to read-out: 48 h transfection before cisplatin; time from cisplatin to read-out not stated. Treatment: cisplatin at a dose killing half of control-siRNA cells; exact dose and duration not given. Detection: 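Cisplatin cell death as a shift from the 50% death seen with control siRNA; siRNAs toxic or growth-blocking alone scored 0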. Scale: two-siRNA summed score (-2 to +2): higher = both siRNAs protect from cisplatin killing; -2 means both sensitise. Rule for the call: 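siRNAs harmful alone (LDH or WST-1) get 0; others get +1 for less and -1 for more cisplatin killing; genes are active when the two siRNAs give the same sign, summing to ±2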. Calls: active = both siRNAs shift cisplatin killing the same way; inactive = no consistent shift, or siRNA harmful alone.
This is a random part of about 23,000 reagents tested. Of all reagents, 455 (2%) got an active call. 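Active includes both protection and sensitisation; some change values fall well beyond the stated -50 to +50 range.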 Unmarked entries are inactive. Reagents against one gene are numbered here. Not all columns of the deposit are shown. The record does not give: the amount of reagent.

{"gene symbol": "PTPN7", "reagent no.": 1, "two-siRNA summed score (-2 to +2)": "-2 (active)"}
{"gene symbol": "KIT", "reagent no.": 1, "two-siRNA summed score (-2 to +2)": 0}
{"gene symbol": "LOC219638", "reagent no.": 1, "two-siRNA summed score (-2 to +2)": 1}
{"gene symbol": "LOC342669", "reagent no.": 1, "two-siRNA summed score (-2 to +2)": 0}
{"gene symbol": "DUT", "reagent no.": 1, "two-siRNA summed score (-2 to +2)": 0}
{"gene symbol": "ZNF839P4", "reagent no.": 1, "two-siRNA summed score (-2 to +2)": 0}
{"gene symbol": "ZNF839P4", "reagent no.": 2, "two-siRNA summed score (-2 to +2)": 1}
{"gene symbol": "MLNR", "reagent no.": 1, "two-siRNA summed score (-2 to +2)": 0}
{"gene symbol": "PTPRA", "reagent no.": 1, "two-siRNA summed score (-2 to +2)": 0}
{"gene symbol": "MGC34830", "reagent no.": 1, "two-siRNA summed score (-2 to +2)": 0}
{"gene symbol": "HIVEP2", "reagent no.": 1, "two-siRNA summed score (-2 to +2)": 0}
{"gene symbol": "DPH1", "reagent no.": 1, "two-siRNA summed score (-2 to +2)": 0}

Reformatted: 2 of the entries above
| gene symbol | reagent no. | two-siRNA summed score (-2 to +2) |
| --- | --- | --- |
| ZNF839P4 | 2 | 1 |
| MLNR | 1 | 0 |
